PubChem BioAssay AID652243 – Drosophila RNAi Screening Center – 2013
In all, the deposit lists about 24,000 reagents; shown is a random part of those that have a named target and a result. In the full data, 246 (1%) are marked active. 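Plates not normalised; calls are printed but the firefly/Renilla ratio behind them is not deposited; fold cut for lowering reported inconsistently.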 The raw values are shown without normalisation. The numbers tell different reagents against one gene apart. Not given: the amount of reagent.

Test: 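Fly genes required for human androgen receptor driven transcription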 (primary screen)
System: Drosophila S2R+ cells
Knock-down reagent: long dsRNA against Drosophila genes
Timing: 72 h (48 h, then 24 h hormone)
Challenge: synthetic androgen R1881 at 10 nM for 24 h
Read-out: 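Firefly light from an androgen-responsive reporter and Renilla control light per well, raw and unnormalised, for each of two replicates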
Direction: firefly reporter light: higher = more light from androgen-responsive reporter; Renilla control light: higher = more constitutive control signal (cell number, transfection)
Active means: 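Across duplicate plates, a knock-down whose log firefly/Renilla ratio shifted a set fold down or up from the GFP/LacZ control mean was a hit; the downward cut appears as both 1.5 and 3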
Meaning of the calls: active = hit: reporter lowered or raised; inactive = no hit

Alg11 showed firefly reporter light, replicate 1 = 57724; firefly reporter light, replicate 2 = 79130; Renilla control light, replicate 1 = 4.34e5; Renilla control light, replicate 2 = 7.60e5; inactive.
Against ldd #1, the entry reads firefly reporter light, replicate 1 = 70676; firefly reporter light, replicate 2 = 1.43e5; Renilla control light, replicate 1 = 4.17e5; Renilla control light, replicate 2 = 3.13e5; inactive.
ldd #2 showed firefly reporter light, replicate 1 = 9.27e5; firefly reporter light, replicate 2 = 7.93e5; Renilla control light, replicate 1 = 1.53e6; Renilla control light, replicate 2 = 1.91e6; inactive.
Silencing of CG15919 resulted in: firefly reporter light, replicate 1 = 2.34e5; firefly reporter light, replicate 2 = 2.91e5; Renilla control light, replicate 1 = 2.98e6; Renilla control light, replicate 2 = 3.58e6; inactive.
After knock-down of rdog #1 the results were firefly reporter light, replicate 1 = 97727; firefly reporter light, replicate 2 = 1.10e5; Renilla control light, replicate 1 = 7.11e5; Renilla control light, replicate 2 = 6.42e5; inactive.
Silencing of rdog #2 resulted in: firefly reporter light, replicate 1 = 3.94e5; firefly reporter light, replicate 2 = 3.10e5; Renilla control light, replicate 1 = 4.00e5; Renilla control light, replicate 2 = 5.84e5; inactive.
After knock-down of Acp53C14a, the record shows firefly reporter light, replicate 1 = 46597; firefly reporter light, replicate 2 = 41088; Renilla control light, replicate 1 = 7.24e5; Renilla control light, replicate 2 = 7.24e5; inactive.
Sry-alpha #1 gave firefly reporter light, replicate 1 = 1.25e5; firefly reporter light, replicate 2 = 1.26e5; Renilla control light, replicate 1 = 1.13e6; Renilla control light, replicate 2 = 1.96e6; inactive.
Against Sry-alpha #2 the deposit lists firefly reporter light, replicate 1 = 4.39e5; firefly reporter light, replicate 2 = 4.16e5; Renilla control light, replicate 1 = 1.02e6; Renilla control light, replicate 2 = 1.10e6; inactive.
Vm26Aa #1 scored firefly reporter light, replicate 1 = 21160; firefly reporter light, replicate 2 = 45232; Renilla control light, replicate 1 = 4.98e5; Renilla control light, replicate 2 = 6.04e5; inactive.
Vm26Aa #2 showed firefly reporter light, replicate 1 = 3.25e5; firefly reporter light, replicate 2 = 2.81e5; Renilla control light, replicate 1 = 1.08e6; Renilla control light, replicate 2 = 5.74e5; inactive.
After knock-down of CG6051 #1, the record shows firefly reporter light, replicate 1 = 62512; firefly reporter light, replicate 2 = 1.14e5; Renilla control light, replicate 1 = 6.98e5; Renilla control light, replicate 2 = 8.10e5; inactive.
With knock-down of CG6051 #2 the results were firefly reporter light, replicate 1 = 8.59e5; firefly reporter light, replicate 2 = 5.95e5; Renilla control light, replicate 1 = 1.15e6; Renilla control light, replicate 2 = 1.06e6; inactive.
Knock-down of esn #1 gave: firefly reporter light, replicate 1 = 1.91e5; firefly reporter light, replicate 2 = 2.14e5; Renilla control light, replicate 1 = 3.18e5; Renilla control light, replicate 2 = 2.49e5; inactive.
esn #2 gave firefly reporter light, replicate 1 = 1.70e5; firefly reporter light, replicate 2 = 1.81e5; Renilla control light, replicate 1 = 1.27e6; Renilla control light, replicate 2 = 1.28e6; inactive.
esn #3 gave firefly reporter light, replicate 1 = 2.15e5; firefly reporter light, replicate 2 = 2.21e5; Renilla control light, replicate 1 = 1.27e6; Renilla control light, replicate 2 = 1.46e6; inactive.
esn #4 scored firefly reporter light, replicate 1 = 2.64e5; firefly reporter light, replicate 2 = 2.34e5; Renilla control light, replicate 1 = 6.06e5; Renilla control light, replicate 2 = 7.55e5; inactive.
